Consider 1 molecule from paper doi:10.1101/339499.

Results are given in words; binding and its absence hold for the method and conditions named. In cells and extracts the contact can be indirect. Some results given as binding are weak or reduced against the parent protein; the word gives no strength. Where a sequence is shown, tags or fusion partners need not be part of it.

In this experiment the target is T1, Paf1-HA (yeast) (UniProt P38351).
T1 sequence: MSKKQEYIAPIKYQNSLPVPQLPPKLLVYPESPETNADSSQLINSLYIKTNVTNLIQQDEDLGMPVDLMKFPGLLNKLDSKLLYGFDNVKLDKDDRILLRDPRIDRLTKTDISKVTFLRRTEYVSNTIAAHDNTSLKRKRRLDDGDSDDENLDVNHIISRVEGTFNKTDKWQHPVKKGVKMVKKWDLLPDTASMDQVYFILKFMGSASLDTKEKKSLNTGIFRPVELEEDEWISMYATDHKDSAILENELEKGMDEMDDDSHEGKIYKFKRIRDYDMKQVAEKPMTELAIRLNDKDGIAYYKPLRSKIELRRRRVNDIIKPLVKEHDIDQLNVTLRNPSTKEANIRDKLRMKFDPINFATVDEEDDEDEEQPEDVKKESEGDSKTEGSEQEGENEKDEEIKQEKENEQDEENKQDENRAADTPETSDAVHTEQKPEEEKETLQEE
The experiment in a line: co-IP.

B1: Rpc128-Flag (pol III subunit Rpc128, FLAG-tagged) (protein, UniProt P22276 1-1149)
chain: MVAATKRRKTHIHKHVKDEAFDDLLKPVYKGKKLTDEINTAQDKWHLLPAFLKVKGLVKQHLDSFNYFVDTDLKKIIKANQLILSDVDPEFYLKYVDIRVGKKSSSSTKDYLTPPHECRLRDMTYSAPIYVDIEYTRGRNIIMHKDVEIGRMPIMLRSNKCILYDADESKMAKLNECPLDPGGYFIVNGTEKVILVQEQLSKNRIIVEADEKKGIVQASVTSSTHERKSKTYVITKNGKIYLKHNSIAEEIPIAIVLKACGILSDLEIMQLVCGNDSSYQDIFAVNLEESSKLDIYTQQQALEYIGAKVKTMRRQKLTILQEGIEAIATTVIAHLTVEALDFREKALYIAMMTRRVVMAMYNPKMIDDRDYVGNKRLELAGQLISLLFEDLFKKFNNDFKLSIDKVLKKPNRAMEYDALLSINVHSNNITSGLNRAISTGNWSLKRFKMERAGVTHVLSRLSYISALGMMTRISSQFEKSRKVSGPRALQPSQFGMLCTADTPEGEACGLVKNLALMTHITTDDEEEPIKKLCYVLGVEDITLIDSASLHLNYGVYLNGTLIGSIRFPTKFVTQFRHLRRTGKVSEFISIYSNSHQMAVHIATDGGRICRPLIIVSDGQSRVKDIHLRKLLDGELDFDDFLKLGLVEYLDVNEENDSYIALYEKDIVPSMTHLEIEPFTILGAVAGLIPYPHHNQSPRNTYQCAMGKQAIGAIAYNQFKRIDTLLYLMTYPQQPMVKTKTIELIDYDKLPAGQNATVAVMSYSGYDIEDALVLNKSSIDRGFGRCETRRKTTTVLKRYANHTQDIIGGMRVDENGDPIWQHQSLGPDGLGEVGMKVQSGQIYINKSVPTNSADAPNPNNVNVQTQYREAPVIYRGPEPSHIDQVMMSVSDNDQALIKVLLRQNRRPELGDKFSSRHGQKGVCGIIVKQEDMPFNDQGIVPDIIMNPHGFPSRMTVGKMIELISGKAGVLNGTLEYGTCFGGSKLEDMSKILVDQGFNYSGKDMLYSGITGECLQAYIFFGPIYYQKLKHMVLDKMHARARGPRAVLTRQPTEGRSRDGGLRLGEMERDCVIAYGASQLLLERLMISSDAFEVDVCDKCGLMGYSGWCTTCKSAENIIKMTIPYAAKLLFQELLSMNIAPRLRLEDIFQQ
On to B1, for which the binding entry was “binds”.
